According to patent US12667824B2, “Carbon dioxide absorbent” (MITSUBISHI GAS CHEMICAL COMPANY, INC., priority 2020, dated 2026):

Test: Evaluation of absorption capacity for carbon dioxide from the air (desiccator)
Settings: 5 mmol amine, 100% by mass, 23° C., 50% RH, initial CO2 about 400 ppm; for Changes of CO2 Concentration 2 h: after 2 hours; for Changes of CO2 Concentration 24 h: after 24 hours

Structure (SMILES)	Changes of CO2 Concentration 2 h [ppm]	Changes of CO2 Concentration 24 h [ppm]
NCCNCCNCCN [Comparative Example 2, Triethylenetetramine, reference compound]	165	294
NCCCNCC1CCCC(CNCCCN)C1 (centres unmarked) [Example 5]	193	279
NCC1CCC(CN)CC1 (single isomer, unassigned) [Example 2, 1,4-bis(aminomethyl)cyclohexane]	206	370
NCC1CCC(CN)CC1 (single isomer, unassigned) [Example 3, 1,4-bis(aminomethyl)cyclohexane]	186	371
